US20240352134A1

Assays:
[1] = target: dog CCR8 (dog); assay: species cross reactivity, comparison of Table 12
[2] = target: dog CCR8 (dog); assay: FACS binding analysis (FIG. 4C)
[3] = target: dog CCR8 (dog); assay: flow cytometry on CCR8-overexpressing cells

Measured: binding

B1: 3F11hz4 (antibody, V domains shown)
VH: EVQLVESGGGLVQPGGSLKLSCAASGFSFNTYAMNWVRQASGKGLEWVGRIRSKSNYYATYYAASVKGRFTISRDDSKSTLYLQMNSLKTEDTAVYYCVRGRELGDYYAMDYWGQGTLVTVSS
VL: DIVMTQSPLSLPVTPGEPASISCRSSKSLLHSNGNTYLYWFLQKPGQSPQLLIYRMSNLASGVPDRFSGSGSGTDFTLKISRVEAEDVGVYYCMQHLEYPFTFGQGTKLEIK
binds: all assays above

These are yes or no findings as the source states them, for the method shown. Binding can be weak; no strength is given.
